For the assay, the target named is T1, Caveolin-1 (mouse (endogenous in alveolar macrophages of C57BL/6 mice)) (UniProt P49817).
T1 sequence: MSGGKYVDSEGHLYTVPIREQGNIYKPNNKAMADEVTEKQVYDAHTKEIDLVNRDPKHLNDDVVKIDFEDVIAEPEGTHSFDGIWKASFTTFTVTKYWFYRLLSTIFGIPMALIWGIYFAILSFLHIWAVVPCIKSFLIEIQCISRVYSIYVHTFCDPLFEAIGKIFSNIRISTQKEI
In words: co-IP; lysate (100 µg protein, IP-lysis buffer) of WT mouse alveolar macrophages treated with elution buffer or OMV for 3 h; 5 µg Cav-1 antibody, 4°C overnight, Pierce Crosslink Magnetic IP/Co-IP Kit; immunoblot with anti-TLR4 antibody.

By UniProt entry, the sequences of proteins in these tests, tags left out. Residues count along the entry.
UniProt Q9QUK6, residues 26-835: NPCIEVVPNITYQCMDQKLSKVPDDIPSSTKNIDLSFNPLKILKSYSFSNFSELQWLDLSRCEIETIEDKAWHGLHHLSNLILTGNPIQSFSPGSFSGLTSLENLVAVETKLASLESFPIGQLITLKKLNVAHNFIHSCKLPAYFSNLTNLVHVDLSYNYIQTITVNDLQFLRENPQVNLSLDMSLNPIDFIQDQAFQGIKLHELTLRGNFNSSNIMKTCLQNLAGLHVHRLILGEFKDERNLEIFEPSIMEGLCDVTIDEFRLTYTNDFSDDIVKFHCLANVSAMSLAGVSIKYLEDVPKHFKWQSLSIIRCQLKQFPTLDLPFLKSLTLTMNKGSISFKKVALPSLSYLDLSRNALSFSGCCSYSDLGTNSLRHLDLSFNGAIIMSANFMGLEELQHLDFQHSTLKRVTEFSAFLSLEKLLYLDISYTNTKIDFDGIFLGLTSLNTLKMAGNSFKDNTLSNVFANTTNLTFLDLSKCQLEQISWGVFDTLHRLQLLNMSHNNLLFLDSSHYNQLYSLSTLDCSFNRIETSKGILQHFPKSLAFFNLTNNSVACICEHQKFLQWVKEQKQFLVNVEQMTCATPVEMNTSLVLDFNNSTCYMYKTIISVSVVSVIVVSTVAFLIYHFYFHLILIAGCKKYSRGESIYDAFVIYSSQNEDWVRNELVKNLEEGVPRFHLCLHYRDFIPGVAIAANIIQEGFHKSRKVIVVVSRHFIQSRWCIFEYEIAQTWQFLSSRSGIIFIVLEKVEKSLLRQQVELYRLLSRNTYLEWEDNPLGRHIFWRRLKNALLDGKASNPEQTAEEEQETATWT

Results are given in words; binding and its absence hold for the method and conditions named. In cells and extracts the contact can be indirect. Some results given as binding are weak or reduced against the parent protein; the word gives no strength.

As to “Toll-like receptor 4 (from UniProt Q9QUK6 26-835)”, the binding entry is reported as “binds”.

These data come from publication PMC9933776.
